From PubChem BioAssay record AID1159506 (NCATS, 2015).

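Luminescence from an EWS-FLI1 target-promoter (NR0B1) reporter, set against a CMV-promoter reporter, two days after silencing single genes in TC32 Ewing sarcoma cells.
Each siRNA was applied at 20 nM.
A z-score of the log NR0B1-over-CMV signal, less the median of siRNAs with the same seed; more negative means a stronger specific loss of the NR0B1 reporter.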

The strongest results of the screen are mostly left out here.
Sequences are the guide (antisense) strand, without overhang.

AAAUGAAUUAUGUUCUCUC against PADI4 gave seed-corrected z-score -0.486. Result for UUUCUCAGUAGUAAACUUG against MUC3B was seed-corrected z-score -1.064. UUUCACAUAAGCCUCCAGG against RASGEF1C gave seed-corrected z-score -0.5101. AUAGUCAUAGCUCUCAUCC against L3MBTL3 gave seed-corrected z-score 1.476.

UCAGUGAUGAGAUUUCGAG against NCKAP1 gave seed-corrected z-score 0.3432. For AAAGCUUACUUUCUGAAGC against CENPH the result was seed-corrected z-score 1.701. UUGCUUGCAGUUACUACAG against FHL1 gave seed-corrected z-score 0.2773. Result for UAAUCGGUCUGCGAUAUUG against ANKRD34A was seed-corrected z-score -0.1888.

Result for UAGAUGCCCAGGUAGGUGU against C11orf68 was seed-corrected z-score 0.3628. AAGGAUAUUGCAUGUAUCG against IFT80 gave seed-corrected z-score -0.7901. For UCCUCUAUAGUAAUGGUGC against PTH2R the result was seed-corrected z-score -0.2058. With UUGGGAAGUUACUUAAUCU against PBOV1 the assay gave seed-corrected z-score -1.696.

For AUCAAGUUAACCUGGAUAG against CBLN4 the result was seed-corrected z-score 0.02805. For UCACCCAGAACUUUGCUCG against RAB24 the result was seed-corrected z-score -0.0007754. With AUACCGAAAAUCAAUAUCC against ZCCHC4 the assay gave seed-corrected z-score 0.7567. With UCUUUGAAAAGGACGGAGC against DHX37 the assay gave seed-corrected z-score 0.1985.

UCUUGAUUUGUAAUAGUCC against FLT3 read seed-corrected z-score 0.1186. UAGGAAGUCUGCAGAAUGC against IL18BP read seed-corrected z-score 1.504. For UGCUCUUCUGCAAUGUUGC against TRIM28 the result was seed-corrected z-score 0.2806. With UUCUUUUGUAUGCUGGAUG against FCRL3 the assay gave seed-corrected z-score -0.4568.

With UCUGCGAAGAGGAUGUAUC against LOC643441 the assay gave seed-corrected z-score -1.085. UCACAAAUCGCUCCAGUUC against FBXO33 read seed-corrected z-score 0.1183. UUCUAUCCAAUCAUCUACC against STAG2 gave seed-corrected z-score 1.474. UUUCGGGCGACUUUUUCUU against PRM2 read seed-corrected z-score 0.6596.

For AAGUGGAUCACUCUGUAUC against SLC35F2 the result was seed-corrected z-score 0.9033. Result for UCCAUAAUGUGGUUCCUGC against RBX1 was seed-corrected z-score 0.3213. UAAGGUUCCUUUAUAUUGC against SLC25A31 gave seed-corrected z-score -0.7563. Result for UAGAUUAUUGGAUUGAUGA against HTR1D was seed-corrected z-score -0.3629.

UCGGUUGUCUUUGAGGAGG against ADGRE3 read seed-corrected z-score -1.914. For UUUCUUUCCCGGGACAGUG against LINC00471 the result was seed-corrected z-score -0.3376. With UCUUGUGCCACCAUAGACC against EFCC1 the assay gave seed-corrected z-score 0.06667. UCCUAUAUUUAGACAAUGC against OPTN gave seed-corrected z-score 0.817.

UCACUGUUGGGUCUUCUCU against MEF2BNB-MEF2B read seed-corrected z-score -0.514. For UGUUGAAACAGGUAGUCGC against PELO the result was seed-corrected z-score 0.09138. Result for UUCAGGUCUAGCUUCUCUG against KDM5C was seed-corrected z-score -1.087. UCUUGUGAUAGAGUCGGGC against ISCU gave seed-corrected z-score 0.1999.

For UAAGGGACUGCUAUGAGUG against OR10X1 the result was seed-corrected z-score -0.1222. With UAUGUCAUCACCAUAGAAC against C2 the assay gave seed-corrected z-score -0.3194. UUCAGUUCUGUAAUCGGCC against GOLGA3 read seed-corrected z-score 0.1163.

The first 3 entries again:

With AAAUGAAUUAUGUUCUCUC against PADI4 the assay gave seed-corrected z-score -0.486.
With UUUCUCAGUAGUAAACUUG against MUC3B the assay gave seed-corrected z-score -1.064.
With UUUCACAUAAGCCUCCAGG against RASGEF1C the assay gave seed-corrected z-score -0.5101.